Experiment: Singlet oxygen measurement by RNO-imidazole method under X-ray

Substance: Cu3Cl(SR)2 wherein R is —CH2CH2NH2 [Cu-Cy]
- singlet oxygen formation relative to PPIX (X-ray 8 Gy): six-times greater than PPIX
- singlet oxygen formation as measured by the loss in RNO absorption (X-ray doses 0 to 8 Gy, 1 mg sample in 3 mL RNO-ID solution, versus control): almost linear relationship of increasing singlet oxygen formation

— US10064942B2, “Copper-cysteamine and methods of use” (THE BOARD OF REGENTS, THE UNIVERSITY OF TEXAS SYSTEM, priority 2013, dated 2018)
